Experimental data published in patent US20260232818A1, “PHARMACEUTICAL COMPOSITIONS COMPRISING PROTEIN COMPLEXES” (Onchilles Pharma, Inc., priority 2023, published 2026).
Results are given in words; binding and its absence hold for the method and conditions named. Some entries that bind do so weakly or less than the wild type.

Protein sequences, listed by entry. Tags and fused reporters are not part of them. Lines headed by an entry give the natural chain unless they say otherwise; changes in a name come on top.
UniProt P00772: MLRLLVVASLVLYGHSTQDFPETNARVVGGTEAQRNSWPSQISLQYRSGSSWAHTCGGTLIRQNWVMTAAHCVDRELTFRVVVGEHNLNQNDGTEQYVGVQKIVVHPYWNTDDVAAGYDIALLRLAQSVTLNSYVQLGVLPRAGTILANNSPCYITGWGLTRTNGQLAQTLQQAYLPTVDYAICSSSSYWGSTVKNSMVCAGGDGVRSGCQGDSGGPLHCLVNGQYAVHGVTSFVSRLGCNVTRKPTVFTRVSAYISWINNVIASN

Columns and labels:
[1] = target: PPE protein 'Mutant F' (MutF, SEQ ID NO: 5) (porcine) (UniProt P00772); test: enzyme activity and A1AT protection over a pH range (figure legend)
[2] = target: PPE protein 'Mutant F' (MutF, SEQ ID NO: 5) (porcine) (UniProt P00772); test: cation exchange and size exclusion chromatography of the 1:2 mix; fractions tested for activity, protein concentration and A1AT protection
[3] = target: PPE protein 'Mutant F' (MutF, SEQ ID NO: 5) (porcine) (UniProt P00772); test: enzyme activity after freeze/thaw cycles (figure legend)
[4] = target: PPE protein 'Mutant F' (MutF, SEQ ID NO: 5) (porcine) (UniProt P00772); test: activity and A1AT protection in lysates of treated tumor cells

Measured: binding

B1: alpha-2-macroglobulin (A2M) (protein)
chain: SVSGKPQYMVLVPSLLHTETTEKGCVLLSYLNETVTVSASLESVRGNRSLFTDLEAENDVLHCVAFAVPKSSSNEEVMFLTVQVKGPTQEFKKRTTVMVKNEDSLVFVQTDKSIYKPGQTVKFRVVSMDENFHPLNELIPLVYIQDPKGNRIAQWQSFQLEGGLKQFSFPLSSEPFQGSYKVVVQKKSGGRTEHPFTVEEFVLPKFEVQVTVPKIITILEEEMNVSVCGLYTYGKPVPGHVTVSICRKYSDASDCHGEDSQAFCEKFSGQLNSHGCFYQQVKTKVFQLKRKEYEMKLHTEAQIQEEGTVVELTGRQSSEITRTITKLSFVKVDSHFRQGIPFFGQVRLVDGKGVPIPNKVIFIRGNEANYYSNATTDEHGLVQFSINTTNVMGTSLTVRVNYKDRSPCYGYQWVSEEHEEAHHTAYLVFSPSKSFVHLEPMSHELPCGHTQTVQAHYILNGGTLLGLKKLSFYYLIMAKGGIVRTGTHGLLVKQEDMKGHFSISIPVKSDIAPVARLLIYAVLPTGDVIGDSAKYDVENCLANKVDLSFSPSQSLPASHAHLRVTAAPQSVCALRAVDQSVLLMKPDAELSASSVYNLLPEKDLTGFPGPLNDQDNEDCINRHNVYINGITYTPVSSTNEKDMYSFLEDMGLKAFTNSKIRKPKMCPQLQQYEMHGPEGLRVGFYESDVMGRGHARLVHVEEPHTETVRKYFPETWIWDLVVVNSAGVAEVGVTVPDTITEWKAGAFCLSEDAGLGISSTASLRAFQPFFVELTMPYSVIRGEAFTLKATVLNYLPKCIRVSVQLEASPAFLAVPVEKEQAPHCICANGRQTVSWAVTPKSLGNVNFTVSAEALESQELCGTEVPSVPEHGRKDTVIKPLLVEPEGLEKETTFNSLLCPSGGEVSEELSLKLPPNVVEESARASVSVLGDILGSAMQNTQNLLQMPYGCGEQNMVLFAPNIYVLDYLNETQQLTPEIKSKAIGYLNTGYQRQLNYKHYDGSYSTFGERYGRNQGNTWLTAFVLKTFAQARAYIFIDEAHITQALIWLSQRQKDNGCFRSSGSLLNNAIKGGVEDEVTLSAYITIALLEIPLTVTHPVVRNALFCLESAWKTAQEGDHGSHVYTKALLAYAFALAGNQDKRKEVLKSLNEEAVKKDNSVHWERPQKPKAPVGHFYEPQAPSAEVEMTSYVLLAYLTAQPAPTSEDLTSATNIVKWITKQQNAQGGFSSTQDTVVALHALSKYGAATFTRTGKAAQVTIQSSGTFSSKFQVDNNNRLLLQQVSLPELPGEYSMKVTGEGCVYLQTSLKYNILPEKEEFPFALGVQTLPQTCDEPKAHTSFQISLSVSYTGSRSASNMAIVDVKMVSGFIPLKPTVKMLERSNHVSRTEVSSNHVLIYLDKVSNQTLSLFFTVLQDVPVRDLKPAIVKVYDYYETDEFAIAEYNAPCSKDLGNA
binds: all assays above
